Data as given in PubChem BioAssay AID1671190 (National Center for Advancing Translational Sciences (NCATS), 2021).
Out of some 580,000 compounds screened, about 6,100 (1.1%) were called active. The inconclusive results got no clear call from the source; some entries with a clear call stand among them for comparison. The call rests on the fitted dose curve; in most records, active means well fitted inhibition curve with a large enough effect; inconclusive means small, poorly fitted or top-dose-only effect, or another doubt; inactive means no such curve, though single readings can be large or run the other way. Potencies of inconclusive entries are doubtful fits and often do not repeat.

Protein sequences, listed by entry. Tags and fused reporters are not part of them.
UniProt P18054, whole entry, looked up: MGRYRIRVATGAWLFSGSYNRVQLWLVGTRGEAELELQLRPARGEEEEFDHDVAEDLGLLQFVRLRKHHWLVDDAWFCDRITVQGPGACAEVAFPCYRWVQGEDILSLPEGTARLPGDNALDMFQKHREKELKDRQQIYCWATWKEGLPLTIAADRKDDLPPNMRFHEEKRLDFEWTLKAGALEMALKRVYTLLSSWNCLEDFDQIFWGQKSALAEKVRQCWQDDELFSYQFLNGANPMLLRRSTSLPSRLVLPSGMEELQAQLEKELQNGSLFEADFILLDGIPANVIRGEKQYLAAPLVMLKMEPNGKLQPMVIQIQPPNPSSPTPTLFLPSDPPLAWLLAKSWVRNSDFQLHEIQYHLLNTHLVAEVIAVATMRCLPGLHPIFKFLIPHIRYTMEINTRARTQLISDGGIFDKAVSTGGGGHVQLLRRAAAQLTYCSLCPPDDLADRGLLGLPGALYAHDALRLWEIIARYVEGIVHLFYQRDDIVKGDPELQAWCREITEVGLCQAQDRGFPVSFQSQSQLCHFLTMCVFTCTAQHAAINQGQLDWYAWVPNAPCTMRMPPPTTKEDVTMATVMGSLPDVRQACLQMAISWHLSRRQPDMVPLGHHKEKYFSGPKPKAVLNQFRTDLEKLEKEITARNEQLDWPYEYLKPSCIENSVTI

Each compound was assayed against Polyunsaturated fatty acid lipoxygenase ALOX12 (Homo sapiens) (UniProt P18054) (assay: Primary qHTS assay for inhibitors of human arachidonate 12S-lipoxygenase (ALOX12): Round 2). Details: purified 12hLO, xylenol orange hydroperoxide absorbance; activity change, negative = inhibition: at 108 µM (top of the series) unless noted.
Procedure, shortened: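 Purified human 12hLO at 150 nM in 25 mM Hepes, 0.01% Triton X-100, pH 7.0, preincubated 15 min at room temperature with compound. Reaction started with 40 uM arachidonic acid, 30 min at room temperature. Hydroperoxide measured by Fe-xylenol orange, 573/405 nm absorbance ratio.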
On the % scale 0 is the no-effect control and ±100 the full control effect; potency means the concentration at half of the fitted maximal effect.

Row | SMILES | activity change, negative = inhibition | Potency
1 | O=C(O)/C=C/c1ccc(S(=O)(=O)Nc2ccc(OCc3ccccc3)cc2)cc1 | inactive: -24.2% | 
2 | CC(OC(=O)c1ccc2ccccc2c1)C(=O)N(C)Cc1ccccc1 (stereo not drawn) |  | inconclusive: 112 µM [inhibitor, single point]
3 | Cc1ccc(-n2ncc3c(=O)n(CC(N)=O)cnc32)cc1 |  | inconclusive: 44.7 µM [inhibitor, single point]
4 | Cc1nnc(SCC2=C(C(=O)O)N3C(=O)C(NC(=O)Cc4ccccc4)C3SC2)s1 (stereo not drawn) |  | inconclusive: 56.2 µM [inhibitor, partial curve, poor fit]
5 | CCOc1ccc(S(=O)(=O)Nc2ccc(-c3ccc(N4CCC(C)CC4)nn3)cc2)cc1 |  | inconclusive: 3.16 µM [inhibitor, full curve, poor fit]
6 | CCOCCn1c(N2CCC(C)CC2)nc2c1c(=O)[nH]c(=O)n2C |  | inconclusive: 126 µM [inhibitor, single point]
7 | C=C1CC[C@H](O)C/C1=C/C=C1\CCC[C@]2(C)[C@@H]([C@H](C)CCC(O)C(C)(C)O)CC[C@@H]12 (stereo partly drawn) |  | inconclusive: 112 µM [inhibitor, single point]
8 | Cc1ccc(SCCC(=O)Nc2ccccc2C(=O)N2CCOCC2)cc1 | inactive: 15.5% | 
9 | Cc1cccc([N+](=O)[O-])c1NC(=O)CN(Cc1ccccc1)Cc1ccccc1 | inactive: -9.13% | 
10 | CCOc1ccc(CC(=O)N2CC(CO)C3(CCNCC3)C2)cc1OCC (stereo not drawn) |  | inconclusive: 22.4 µM [inhibitor, full curve, poor fit]
11 | O=C1CCCC/C1=C\Nc1ccc(O)cc1 |  | inconclusive: 15.8 µM [inhibitor, full curve, poor fit]
12 | CC(CN(CCN(C)C)Cc1ccccc1)c1ccccc1 (stereo not drawn) |  | inconclusive: 2.51 µM [inhibitor, full curve, poor fit]
13 | O=c1c2ccccc2c(-c2cccs2)nn1CC(O)COCc1ccc(Cl)cc1 (stereo not drawn) | inactive: 22.8% | 
14 | Cc1ccc(-n2nc(CO)c(C(=O)NCCCc3ccccc3)n2)cc1 |  | inconclusive: 50.1 µM [inhibitor, partial curve, poor fit]
15 | CC1(C)CC(=O)C2=C(C1)NC(Nc1nc3ccccc3o1)=NC2c1ccccc1Cl (stereo not drawn) | inactive: 32.8% | 
16 | COc1ccc(C(=O)N2CCOc3ccc(CCC(N)=O)cc3C2)cc1F | inactive: -1.91% | 
17 | C=CCNC(=O)c1cn2c(n1)CN(C(=O)c1ccccc1)CC2 |  | inconclusive: 100 µM [inhibitor, single point]
18 | Cc1cc(C)n2c(SCC(=O)Nc3cc(S(=O)(=O)N(C)C)ccc3C)nnc2n1 |  | inconclusive: 63.1 µM [inhibitor, single point]
19 | CCNc1nc(-c2ccc(NC(C)=O)cc2)cs1 |  | active: 28.2 µM
20 | COc1ccccc1CNC(=O)c1cnc2sc(N3CCCCCC3)nn2c1=O | inactive: -24.9% | 
21 | COc1ccc(C(=O)NCCNC(=O)c2ccc(C)nc2)cc1 |  | inconclusive: 141 µM [inhibitor, partial curve, poor fit]
22 | O=C(CSc1nnc2ccc3ccccc3n12)c1ccc(F)cc1 | inactive: -1.05% | 
23 | COc1ccccc1CNC(=O)CSc1nnc2ccc(-c3ccc4c(c3)OCO4)nn12 |  | inconclusive: 100 µM [inhibitor, single point]

From entry 19 up to 23, copied from above:
Row | SMILES | activity change, negative = inhibition | Potency
19 | CCNc1nc(-c2ccc(NC(C)=O)cc2)cs1 |  | active: 28.2 µM
20 | COc1ccccc1CNC(=O)c1cnc2sc(N3CCCCCC3)nn2c1=O | inactive: -24.9% | 
21 | COc1ccc(C(=O)NCCNC(=O)c2ccc(C)nc2)cc1 |  | inconclusive: 141 µM [inhibitor, partial curve, poor fit]
22 | O=C(CSc1nnc2ccc3ccccc3n12)c1ccc(F)cc1 | inactive: -1.05% | 
23 | COc1ccccc1CNC(=O)CSc1nnc2ccc(-c3ccc4c(c3)OCO4)nn12 |  | inconclusive: 100 µM [inhibitor, single point]

(listing goes on)

Row | SMILES | activity change, negative = inhibition | Potency
24 | CCSC1=C(C#N)C(c2ccc3c(c2)OCO3)C2=C(CCCC2=O)N1 (stereo not drawn) |  | inconclusive: 44.7 µM [inhibitor, partial curve, poor fit]
25 | Cc1nc2sc(C(N)=O)c(N)c2c(-c2ccc(Br)cc2)c1C(=O)Nc1ccc(Cl)cc1 |  | inconclusive: 50.1 µM [inhibitor, partial curve, poor fit]
26 | O=C(O)COc1ccc2c(=O)c(-c3ccccc3)coc2c1 |  | inconclusive: 35.5 µM [inhibitor, partial curve, poor fit]
27 | CN(C)CCCN=Cc1c(O)n(Cc2ccccc2)c(=O)c2ccccc12 | inactive: 130% | 
28 | COc1ccc2c(C)nc(N/C(N)=N/S(=O)(=O)c3ccc(C)cc3)nc2c1 | inactive: -15.5% | 
29 | Cc1ccc(-c2nc3nc(CNc4cc(Cl)ccc4C)cc(=O)n3[nH]2)cc1 |  | inconclusive: 79.4 µM [inhibitor, single point]
30 | CSc1ccc(CNC(=O)CCn2c(=O)c3cccn3c3ccc(F)cc32)cc1 | inactive: -28.1% | 
31 | CCCc1c(C(=O)N/N=C/c2c[nH]c3ccccc23)nnn1-c1nonc1N | inactive: 5.54% | 
32 | O=C(NC1CCCCC1)[C@@H]1C[C@@H](O)CN1C1CCN(C(=O)c2cccnc2)CC1 | inactive: 45.7% | 
33 | CC(=O)NC1(C)CCN(Cc2cccc(Oc3ccccc3)c2)CC1 |  | active: 15.8 µM
34 | Cc1ccc(C2(O)CN(c3ccccc3C)C3=[N+]2CCS3)cc1 (stereo not drawn) |  | inconclusive: 44.7 µM [inhibitor, partial curve, poor fit]
35 | O=Cc1ccc(N2Cc3ccccc3C2)cc1 |  | inconclusive: 5.01 µM [inhibitor, full curve, poor fit]
36 | O/N=C/c1cccc(OCc2ccncc2)c1 | inactive: -15% | 
37 | O=C(O)c1cc(-c2ccc(Cl)cc2)n[nH]1 |  | inconclusive: 31.6 µM [inhibitor, single point]
38 | CN1CCN(Cc2cc(=O)oc3cc(-c4ccccc4)c(O)cc23)CC1 |  | inconclusive: 35.5 µM [inhibitor, partial curve, poor fit]
39 | COC(=O)c1cc2occc2n1Cc1cccc(C)c1 |  | inconclusive: 8.91 µM [inhibitor, full curve, poor fit]
40 | Cc1cc(=O)oc2cc(OCC(=O)c3ccc4c(c3)NC(=O)CO4)ccc12 |  | inconclusive: 50.1 µM [inhibitor, partial curve, poor fit]
41 | CCCn1c(SCC(=O)N2CCN(c3ccccc3)CC2)nc2ccccc2c1=O |  | inconclusive: 100 µM [inhibitor, partial curve, poor fit]
42 | CC(C(=O)Nc1ccc(F)cc1)n1nnc2sc(-c3ccccc3)cc2c1=O (stereo not drawn) |  | active: 31.6 µM
43 | Cc1cccc(N2N=C(C(=O)Nc3ccc(C)c(S(=O)(=O)N4CCCCCC4)c3)CCC2=O)c1 |  | inconclusive: 6.31 µM [inhibitor, full curve, poor fit]
44 | CCCN(CC(=O)Nc1ccccc1C)C(=O)c1ccc(-c2ccc([N+](=O)[O-])cc2)o1 |  | inconclusive: 50.1 µM [inhibitor, partial curve, poor fit]
45 | O=C(NC(=S)N1CCCCC1c1cccnc1)c1ccc(F)cc1 (stereo not drawn) | inactive: -4.74% | 
46 | CC1CCN(c2c([N+](=O)[O-])nn(-c3ccc4c(c3)OCCO4)[n+]2[O-])CC1 |  | inconclusive: 28.2 µM [inhibitor, single point]

Row | SMILES | activity change, negative = inhibition | Potency
47 | COc1ccc(C(=O)Nc2ccc(-c3nc4ccccc4s3)cc2C)cc1Cl |  | inconclusive: 141 µM [inhibitor, single point]
48 | C=CCSc1nc2c(c(=O)n(C)c(=O)n2C)n1CCc1ccc(OC)cc1 | inactive: -23.9% | 
49 | COc1ccc(C[C@H](NC(=O)C2=C[C@@H](Oc3cc(F)ccc3Br)[C@H](O)[C@H](O)C2)C(N)=O)cc1 | inactive: 4.24% | 
50 | N#CCCN1CCN(C(C(=O)O)c2cn(CCC(=O)O)c3ccc(Br)cc23)CC1 (stereo not drawn) |  | inconclusive: 10 µM [inhibitor, full curve, poor fit]
51 | CCCCNC(=O)CCn1c(=O)c2ccccc2n(CC(=O)NCCc2ccc(OC)c(OC)c2)c1=O |  | inconclusive: 15.8 µM [inhibitor, partial curve, poor fit]
52 | CC(=O)c1sc(NC(C)C)c(C#N)c1N |  | active: 17.8 µM
53 | CCOc1ccc(OCCOc2ccc(/C=C/C(=O)O)cc2OCC)cc1 | inactive: -5.91% | 
54 | CNc1nc2cnc(Nc3cccc(F)c3)cc2n1-c1cccc(C(F)(F)F)c1 |  | inconclusive: 14.1 µM [inhibitor, partial curve, poor fit]
55 | CCOC(=O)c1cc2c(=O)n3ccccc3nc2n(CC2CCCO2)c1=NC(C)=O (stereo not drawn) |  | inconclusive: 35.5 µM [inhibitor, full curve, poor fit]
56 | Cc1ccccc1NC(=O)CCc1c(C)nn(-c2ccc(N3CCCC3)nn2)c1C | inactive: -4.82% | 
57 | CN1CCN(c2ccc(NC(=S)NC(=O)c3cccc4c(Cl)cccc34)cc2)CC1 |  | inconclusive: 15.8 µM [inhibitor, full curve]
58 | COc1cc(CN2CCN(c3ncccc3C#N)CC2CCO)cc(OC)c1 (stereo not drawn) | inactive: 7.73% | 
59 | O=C(CN1C(=O)/C(=C2\SC(=S)N(C3CCS(=O)(=O)C3)C2=O)c2ccccc21)Nc1ccccc1 (stereo not drawn) |  | inconclusive: 14.1 µM [inhibitor, full curve]
60 | C=C(C)CNC(=S)NNC(=O)c1ccncc1 | inactive: 43.7% | 
61 | C=CC[C@H]1CC=C[C@H](CC=C)N1 |  | inconclusive: 100 µM [inhibitor, single point]
62 | C[N+]1(CC2COC(c3ccccc3)(C3CCCCC3)O2)CCCCC1 (stereo not drawn) |  | inconclusive: 14.4 µM [inhibitor, partial curve, poor fit]
63 | CCCn1nc(C)cc1CN(C)c1ccc(NC(=O)c2cccc(Cl)c2)cc1C(=O)O |  | inconclusive: 50.1 µM [inhibitor, partial curve, poor fit]
64 | COc1cc(C2C(C(=O)c3ccc(C)o3)=C(O)C(=O)N2Cc2cccnc2)ccc1O (stereo not drawn) |  | inconclusive: 56.2 µM [inhibitor, single point]
65 | Cc1cccc(-c2nc3c(c(=O)c4ccccc4n3C)c(=O)n2-c2ccccc2)c1 |  | inconclusive: 4.47 µM [inhibitor, full curve]
66 | COc1ccc(-c2noc3c2-c2nc(-c4ccccc4)sc2CC3)cc1 |  | inconclusive: 35.5 µM [inhibitor, partial curve, poor fit]
67 | COC(=O)C1(NC(=O)c2ccc3c(c2)OCCCO3)CCCCC1 | inactive: 4.05% | 
68 | CCN(CC(=O)Nc1ccc(NC(C)=O)cc1)c1ccc(C(F)(F)F)cn1 | inactive: -10.9% | 
